Test results from paper PMC8082834.
Results are given in words; binding and its absence hold for the method and conditions named. Binding seen in cells or lysates may run through a third protein. Some entries that bind do so weakly or less than the wild type.

The chains behind the UniProt entries cited, without tags or fusion partners.
UniProt Q3URK3: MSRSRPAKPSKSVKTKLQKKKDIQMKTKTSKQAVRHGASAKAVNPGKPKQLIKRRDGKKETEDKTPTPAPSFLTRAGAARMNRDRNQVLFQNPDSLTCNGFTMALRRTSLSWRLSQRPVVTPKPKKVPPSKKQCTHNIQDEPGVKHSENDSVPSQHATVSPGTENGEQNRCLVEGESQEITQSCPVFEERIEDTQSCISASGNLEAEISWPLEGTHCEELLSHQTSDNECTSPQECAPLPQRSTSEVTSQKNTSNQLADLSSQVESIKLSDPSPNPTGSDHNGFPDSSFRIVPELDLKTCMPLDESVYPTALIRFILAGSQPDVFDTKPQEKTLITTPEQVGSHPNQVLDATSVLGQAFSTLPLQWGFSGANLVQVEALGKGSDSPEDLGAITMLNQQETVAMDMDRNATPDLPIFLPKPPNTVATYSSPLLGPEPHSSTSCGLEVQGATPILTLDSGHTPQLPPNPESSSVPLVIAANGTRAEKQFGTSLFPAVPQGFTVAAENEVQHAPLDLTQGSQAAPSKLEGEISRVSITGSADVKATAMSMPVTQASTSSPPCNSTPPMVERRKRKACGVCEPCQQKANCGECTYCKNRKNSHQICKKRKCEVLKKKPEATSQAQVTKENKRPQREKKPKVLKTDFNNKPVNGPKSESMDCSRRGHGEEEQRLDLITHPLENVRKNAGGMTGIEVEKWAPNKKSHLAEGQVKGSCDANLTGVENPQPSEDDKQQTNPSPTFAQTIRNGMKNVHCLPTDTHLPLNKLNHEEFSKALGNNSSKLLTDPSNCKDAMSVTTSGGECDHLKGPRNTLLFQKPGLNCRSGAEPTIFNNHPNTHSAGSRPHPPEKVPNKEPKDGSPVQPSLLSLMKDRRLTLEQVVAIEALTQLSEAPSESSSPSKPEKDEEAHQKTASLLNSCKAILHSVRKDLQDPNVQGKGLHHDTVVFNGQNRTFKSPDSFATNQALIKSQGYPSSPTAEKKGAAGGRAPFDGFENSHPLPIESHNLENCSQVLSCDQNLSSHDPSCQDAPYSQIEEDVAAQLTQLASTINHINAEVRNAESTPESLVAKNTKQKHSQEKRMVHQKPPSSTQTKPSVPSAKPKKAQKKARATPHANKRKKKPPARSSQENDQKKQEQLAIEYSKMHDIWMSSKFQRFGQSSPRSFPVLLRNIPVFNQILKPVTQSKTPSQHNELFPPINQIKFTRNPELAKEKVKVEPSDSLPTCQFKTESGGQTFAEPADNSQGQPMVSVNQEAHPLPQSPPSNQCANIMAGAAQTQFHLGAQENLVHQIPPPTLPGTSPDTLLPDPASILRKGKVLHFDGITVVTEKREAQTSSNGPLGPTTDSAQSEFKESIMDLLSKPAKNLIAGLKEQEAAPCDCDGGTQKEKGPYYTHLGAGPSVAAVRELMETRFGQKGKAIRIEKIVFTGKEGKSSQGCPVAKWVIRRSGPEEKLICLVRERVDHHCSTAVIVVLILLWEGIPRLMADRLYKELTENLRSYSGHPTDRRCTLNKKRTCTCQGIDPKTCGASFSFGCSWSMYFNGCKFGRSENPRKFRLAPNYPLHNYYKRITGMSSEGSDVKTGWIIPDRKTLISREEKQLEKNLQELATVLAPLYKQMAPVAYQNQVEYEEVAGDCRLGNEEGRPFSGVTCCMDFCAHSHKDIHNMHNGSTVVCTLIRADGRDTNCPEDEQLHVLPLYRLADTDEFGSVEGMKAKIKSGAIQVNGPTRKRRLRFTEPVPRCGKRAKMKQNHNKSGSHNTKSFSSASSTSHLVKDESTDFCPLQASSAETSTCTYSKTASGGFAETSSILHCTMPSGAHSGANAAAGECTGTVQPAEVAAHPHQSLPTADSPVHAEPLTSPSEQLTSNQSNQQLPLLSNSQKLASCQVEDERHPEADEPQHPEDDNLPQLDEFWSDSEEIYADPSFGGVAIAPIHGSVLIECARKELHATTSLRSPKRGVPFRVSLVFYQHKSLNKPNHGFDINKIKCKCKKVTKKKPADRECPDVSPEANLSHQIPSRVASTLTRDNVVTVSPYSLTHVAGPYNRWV

Target: Ten-eleven translocation protein 1 (mouse (endogenous in SmoA1-MB tumor tissue)) (UniProt Q3URK3)
Assay: co-IP; SmoA1-MB tumor tissue lysate (20 mM Tris pH 7.4, 150 mM NaCl, 0.5% Triton X-100, 1 mM EDTA, 10% glycerol); 1 mg supernatant incubated with anti-Tet1 (GeneTex) or control IgG overnight at 4 °C, Protein-G beads 4 h at 4 °C; immunoblot

B1: NANOG (protein, UniProt Q80Z64 1-305)
chain: MSVGLPGPHSLPSSEEASNSGNASSMPAVFHPENYSCLQGSATEMLCTEAASPRPSSEDLPLQGSPDSSTSPKQKLSSPEADKGPEEEENKVLARKQKMRTVFSQAQLCALKDRFQKQKYLSLQQMQELSSILNLSYKQVKTWFQNQRMKCKRWQKNQWLKTSNGLIQKGSAPVEYPSIHCSYPQGYLVNASGSLSMWGSQTWTNPTWSSQTWTNPTWNNQTWTNPTWSSQAWTAQSWNGQPWNAAPLHNFGEDFLQPYVQLQQNFSASDLEVNLEATRESHAHFSTPQALELFLNYSVTPPGEI
With B1 as the binder, how does the binding read?
The binding was “binds”.
